For assay [1], the target named is endogenous MAD2B (human (endogenous in U2OS)) (UniProt Q9UI95). In words: co-IP; whole cell lysates of U2OS cells labelled with 35S methionine; IP with anti-MAD2B, anti-CLTA or control IgG; labelled bands on gel.
The target of assay [2] is T1, GST-CLTA fusion protein, full length (human) (UniProt P09496).
T1 sequence: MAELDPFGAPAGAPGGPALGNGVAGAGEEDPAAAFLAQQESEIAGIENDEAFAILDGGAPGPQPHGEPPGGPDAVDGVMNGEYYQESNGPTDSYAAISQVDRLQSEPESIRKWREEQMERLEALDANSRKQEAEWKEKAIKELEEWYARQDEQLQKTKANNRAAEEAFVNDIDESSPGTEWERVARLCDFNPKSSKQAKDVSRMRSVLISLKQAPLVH
In words: pull-down; GST-CLTA or GST on glutathione Sepharose 4B, incubated overnight at 4°C with lysates of U2OS cells expressing HA-MAD2B; washes with 150 mM or 100 mM NaCl and Triton X-100; western blot; only the target purified. In general terms: Immunoblotting shows a protein as a band on a membrane.

Sequences of proteins named here, by UniProt entry; tags and fusion partners are left off.
UniProt Q9UI95: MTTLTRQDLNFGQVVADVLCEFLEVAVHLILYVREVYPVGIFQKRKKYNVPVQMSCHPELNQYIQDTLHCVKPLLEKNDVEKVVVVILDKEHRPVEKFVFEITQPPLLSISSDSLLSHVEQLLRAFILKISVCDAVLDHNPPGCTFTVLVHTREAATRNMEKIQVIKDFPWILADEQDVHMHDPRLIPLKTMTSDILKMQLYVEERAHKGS
UniProt Q00610: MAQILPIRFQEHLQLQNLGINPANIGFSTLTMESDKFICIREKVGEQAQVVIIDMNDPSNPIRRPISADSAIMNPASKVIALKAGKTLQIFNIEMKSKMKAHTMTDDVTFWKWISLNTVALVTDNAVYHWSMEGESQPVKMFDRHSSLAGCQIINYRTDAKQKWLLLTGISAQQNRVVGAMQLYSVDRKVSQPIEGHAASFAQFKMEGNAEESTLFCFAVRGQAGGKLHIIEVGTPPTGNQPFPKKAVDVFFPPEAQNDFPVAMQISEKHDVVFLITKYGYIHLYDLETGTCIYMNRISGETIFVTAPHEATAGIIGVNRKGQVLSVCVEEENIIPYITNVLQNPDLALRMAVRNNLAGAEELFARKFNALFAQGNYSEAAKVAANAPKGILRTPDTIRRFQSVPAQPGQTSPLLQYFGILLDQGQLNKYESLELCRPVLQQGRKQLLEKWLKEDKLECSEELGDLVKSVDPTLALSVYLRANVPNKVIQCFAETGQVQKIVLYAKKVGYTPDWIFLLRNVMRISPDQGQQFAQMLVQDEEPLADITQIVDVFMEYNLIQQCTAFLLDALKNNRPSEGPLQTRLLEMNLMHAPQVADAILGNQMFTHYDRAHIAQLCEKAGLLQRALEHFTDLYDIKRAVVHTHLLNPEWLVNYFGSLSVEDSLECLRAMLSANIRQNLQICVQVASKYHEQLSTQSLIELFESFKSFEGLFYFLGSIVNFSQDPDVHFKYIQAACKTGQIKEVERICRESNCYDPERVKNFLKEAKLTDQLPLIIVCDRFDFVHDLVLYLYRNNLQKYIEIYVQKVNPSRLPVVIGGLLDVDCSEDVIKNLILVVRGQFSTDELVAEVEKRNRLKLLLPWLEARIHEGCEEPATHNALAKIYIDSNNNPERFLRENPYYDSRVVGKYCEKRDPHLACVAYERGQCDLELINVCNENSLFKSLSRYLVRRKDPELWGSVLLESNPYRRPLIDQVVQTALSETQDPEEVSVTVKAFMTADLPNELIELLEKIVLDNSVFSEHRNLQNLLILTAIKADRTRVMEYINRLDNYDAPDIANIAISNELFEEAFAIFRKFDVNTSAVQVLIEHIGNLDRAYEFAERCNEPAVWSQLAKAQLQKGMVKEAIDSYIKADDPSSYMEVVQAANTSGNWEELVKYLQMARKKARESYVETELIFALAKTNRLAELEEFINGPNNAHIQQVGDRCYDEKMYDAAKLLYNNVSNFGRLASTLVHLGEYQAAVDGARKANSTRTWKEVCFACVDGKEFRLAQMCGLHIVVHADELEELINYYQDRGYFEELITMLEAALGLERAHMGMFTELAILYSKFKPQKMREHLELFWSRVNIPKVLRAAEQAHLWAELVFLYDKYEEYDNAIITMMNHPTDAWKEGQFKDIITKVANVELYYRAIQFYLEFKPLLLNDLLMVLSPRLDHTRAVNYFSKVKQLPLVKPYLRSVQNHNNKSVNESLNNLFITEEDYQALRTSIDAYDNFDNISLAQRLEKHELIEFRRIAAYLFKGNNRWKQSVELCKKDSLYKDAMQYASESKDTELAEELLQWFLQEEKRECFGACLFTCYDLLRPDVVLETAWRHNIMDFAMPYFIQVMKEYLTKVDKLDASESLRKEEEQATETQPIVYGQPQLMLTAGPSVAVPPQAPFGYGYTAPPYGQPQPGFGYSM

The target of assay [3] is mitotic arrest deficient protein MAD2B, full coding sequence, two-hybrid bait (human) (UniProt Q9UI95). Nature of the assay: two-hybrid; screen of a human testis cDNA library (pAD-GAL4) with MAD2B bait (pBDT3C) in yeast pJ69-4A; growth on SD -HALW, LacZ filter lift; retransformation of the clones with bait and control plasmids.
Assay [4] has as its target HA-tagged MAD2B, full-length (human) (UniProt Q9UI95). In words: co-IP; U2OS cells transiently transfected with HA-MAD2B and FLAG-CLTA; IP with anti-MAD2B antibody or control rabbit IgG, blot with anti-FLAG; lysis buffer PBS, 10% glycerol, 0.1% NP40.

Results are given in words; binding and its absence hold for the method and conditions named. For some assays here: In cells and extracts the contact can be indirect. Some entries that bind do so weakly or less than the wild type. For some assays here: Sequences can lack the tags named with a protein.

This passage reports binding results from article PMC2994903.

“endogenous clathrin heavy chain (CLTC) (from UniProt Q00610 1-1675)”: the binding result in assay [1] is listed as “binds”.

“HA-tagged MAD2B, full-length (from UniProt Q9UI95 1-211)”: in assay [2], the binding entry is given as “binds”.

B1: CLTA library clone coding for the C-terminal 100 amino acids, two-hybrid prey (domain or fragment, UniProt P09496-2 119-218)
chain: ERLEALDANSRKQEAEWKEKAIKELEEWYARQDEQLQKTKANNRAAEEAFVNDIDESSPGTEWERVARLCDFNPKSSKQAKDVSRMRSVLISLKQAPLVH
In the case of B1, the binding result in assay [3] is listed as “binds”.

B2: clathrin light chain A (CLTA), full-length, two-hybrid prey (protein, UniProt P09496-2 1-218)
chain: MAELDPFGAPAGAPGGPALGNGVAGAGEEDPAAAFLAQQESEIAGIENDEAFAILDGGAPGPQPHGEPPGGPDAVDGVMNGEYYQESNGPTDSYAAISQVDRLQSEPESIRKWREEQMERLEALDANSRKQEAEWKEKAIKELEEWYARQDEQLQKTKANNRAAEEAFVNDIDESSPGTEWERVARLCDFNPKSSKQAKDVSRMRSVLISLKQAPLVH
Consider B2, for which the binding result in assay [3] was “binds”.

B3: FLAG-tagged CLTA, full length (protein, UniProt P09496-2 1-218)
chain: MAELDPFGAPAGAPGGPALGNGVAGAGEEDPAAAFLAQQESEIAGIENDEAFAILDGGAPGPQPHGEPPGGPDAVDGVMNGEYYQESNGPTDSYAAISQVDRLQSEPESIRKWREEQMERLEALDANSRKQEAEWKEKAIKELEEWYARQDEQLQKTKANNRAAEEAFVNDIDESSPGTEWERVARLCDFNPKSSKQAKDVSRMRSVLISLKQAPLVH
For B3, the binding entry in assay [4] is “binds”.
